# Source: PubChem BioAssay AID1471 (National Center for Advancing Translational Sciences (NCATS), 2008)
# Among all 230,000 compounds or so, about 310 (0.13%) were called active. The shares of active, inactive and inconclusive entries below differ from those in the screen. Calls come from the whole dose curve; as a rule, active = well fitted activation curve with a large enough effect; inconclusive = small, poorly fitted or top-dose-only effect; inactive = no such curve, though single readings can be large or run the other way. Potencies beside an inconclusive call are fits to weak or partial responses and may not hold up.
# Experiment: qHTS Multiplex Assay to Identify Dual Action Probes in a Cell Model of Huntington: Cytoprotection (ATP); note: nearly all actives have a fitted effect of over 45% in size;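 for cytoprotection (ATP increase): toxic huntingtin expression switched on by the ecdysone agonist tebufenozide; % of control where 0% means no effect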
# Settings: PC12 HTT-Q103 induced, ATP luminescence, 40 h; cytoprotection (ATP increase): at 56.4 µM (top of the series) unless noted
# Excerpt: NIH Chemical Genomics Center [NCGC]
# NIH Molecular Libraries Probe Production centers Network [MLPCN]
# Assay Submitter (PI): Wei Zheng
# Huntington's disease is a neurodegenerative disorder caused by a trinucleotide repeat expansion in Exon 1 of the Huntingtin gene. The CAG trinucleotide encodes glutamine and polyglutamine expansions cause cell death in selective areas of the brain. Huntington polyglutamine repeats have the tendency to form aggregates which are observable in later stages of the disease. The exact nature of the aggregates, whether toxic, protective, or insignificant, is unclear.
# A stable PC12 cell line containing a gene fusion of Exon 1 of the Huntingtin gene linked to GFP under the control of the inducible ecdysone promoter were used as the cell-based model of Huntington Disease for high throughput screening. Exon 1 of the Huntingtin gene contained an expansion of 103 polyglutamines (Q103) which, when expressed, caused cell death and distinct, bright GFP aggregates. The amount of cell death and the size and intensity of GFP aggregates increased over time and induction level. The cell death were quantified with a measurement of ATP content in the cells. A maximal 40-50% of cell death was observed when the Huntington gene was induced in this cell line.
# We optimized this assay in a homogeneous 1536 well format. A quantitative high throughput screen (qHTS) was conducted on the PC12 cells which were induced to express the toxic fusion construct. Small molecules which prevented cell death were identified by using a luminescent ATP quantification method (Perkin Elmer's ATPlite).
# PC12 cells stably containing a construct with an ecdysone inducible promoter expressing GFP fused to the exon 1 of HTTQ103 (Huntington protein which containing a 103 ployglutamine expansion) were used.
# NCGC Assay Protocol Summary:
# Sequence, Parameter, Description
# 1, Reagent, 5 uL 1500 cells/well 1536 TC treated White clear bottom plate
# 2, Compound, 23 nL Tebufenozide inducer (100 nM final) to all columns
# 3, Compound, 23 nL 40 uM to 0.5 nM Libraries
# 5, Reagent, 5 ul ATPLite cell death assay reagent
# 6, Detector, 4 sec integration with a Viewlux Luminescent
# Media consisted of phenol red free DMEM + 5% equine serum (Hyclone # SH30072.03 ), 5% supplemented Bovine Calf Serum (Hyclone # SH30074.03 ), 1x pen/strep, no G418
# Control columns: 1 = DMSO, 2= 2 uM teb dilns (1:1), 4 = 100 nM Teb inducer. Sample columns received 100 nM Teb.
# Potency is the fitted concentration of half-maximal effect.
Compound,Potency,cytoprotection (ATP increase)
COc1ccc(-c2nc(-c3ccccc3)oc2Nc2c(C)cccc2C)cc1,inactive,
C/C=C(\CS(=O)(=O)c1ccccc1)S(=O)(=O)c1ccccc1,"inconclusive: 17.8 µM [activator, single point]",
COc1ccc(CC(=O)NC2=NCCS2)cc1,"inconclusive: 1.26 µM [activator, single point]",
OC(CCN1CCCCC1)(c1ccccc1)C1CCCCC1 (stereo not given),"inconclusive: 25.1 µM [activator, single point]",
Cc1cc(C(=O)Oc2ccccc2C(=O)O)c(C)o1,,inactive: -8.29% [at 0.074 µM]
CC1CCC(C(=O)O)NC1c1cccc(N2CCOCC2)c1 (stereo not given),,inactive: -16.3% [at 10 µM]
COc1ccccc1CNc1cc(-c2ccoc2)ncn1,"inconclusive: 31.6 µM [activator, single point]",
O=S(=O)(c1cccc(C(F)(F)F)c1)N1CCN(C(=S)NCc2ccco2)CC1,"inconclusive: 1 µM [activator, single point]",
Cc1ccc2[nH]c(=O)c(NC(N)=S)nc2c1,"inconclusive: 5.62 µM [activator, single point]",
O=C(OCc1ccccc1)c1ccccc1,"inconclusive: 0.355 µM [activator, partial curve, poor fit]",
O=c1c2c3nc4ccccc4nc3n(/N=C/c3ccncc3)c2ncn1-c1ccccc1,,inactive: -3.34% [at 10 µM]
CC(C)CNC(=O)C1CCN(c2ccc(S(=O)(=O)N3CCOCC3)cc2Cl)CC1,,inactive: -26.6% [at 10 µM]
CCOC(=O)c1cnc2c(C#N)cnn2c1N,"inconclusive: 0.282 µM [activator, partial curve]",
OCCC1CN(Cc2cccn2-c2cccnc2)CCN1Cc1ccccc1 (stereo not given),"inconclusive: 1.26 µM [activator, single point]",
N#CC(C#N)=Cc1cccn1-c1ccc(S(N)(=O)=O)cc1,"inconclusive: 20 µM [activator, partial curve, poor fit]",
COc1ccc(CC(=O)Nc2nc3ccc(F)cc3s2)cc1S(=O)(=O)N1CCOCC1,,inactive: -6.8% [at 10 µM]
O=C(CCC1CCCN(Cc2ccc3c(c2)CCO3)C1)NCc1ccc(F)c(F)c1 (stereo not given),"inconclusive: 3.16 µM [activator, single point]",
Cc1cc(=O)[nH]c(SCC(=O)Nc2cccc3ccccc23)c1C#N,inactive,
COc1ccc(NC(=O)c2cccc([N+](=O)[O-])c2)cc1,inactive,
Brc1c(NC2=NCCN2)ccc2nccnc12,"inconclusive: 25.1 µM [activator, partial curve, poor fit]",
CCN1C(=O)[C@@H]2[C@H]3C(=CC[C@H]2C1=O)C(=O)[C@H]1OC1[C@H]3O (stereo not given in full),active: 2.82 µM,
CN(C)CCOC(=O)COc1ccc(Cl)cc1,"inconclusive: 3.16 µM [activator, partial curve]",
COc1ccc(NCC(=O)n2c(C)c(C)c3ccccc32)cc1,inactive,
O=C(/C=C/c1ccccc1)N1CCN(C(=O)c2ccco2)CC1,"inconclusive: 3.55 µM [activator, single point]",

Compound,Potency,cytoprotection (ATP increase)
CC(C)CC(c1nnnn1C1CCCC1)N1CCC(C(N)=O)CC1 (stereo not given),"inconclusive: 3.16 µM [activator, partial curve]",
COc1ccc(C2C(C#N)=C(N)N(c3ccccc3)C3=C2C(=O)CCC3)cc1Cn1cc([N+](=O)[O-])cn1 (stereo not given),"inconclusive: 0.708 µM [activator, partial curve]",
COc1ccccc1CNc1ncnc2c1nnn2Cc1ccccc1,,inactive: -20.5% [at 10 µM]
COc1c(C)cc(C(=O)C2CCCN(C(=O)/C=C/c3ccccn3)C2)cc1C (stereo not given),inactive,
COC(=O)C(N)CS (stereo not given),"inconclusive: 0.005 µM [activator, partial curve]",
Cc1ccc(S(=O)(=O)N(CC(=O)Nc2ccccc2C(=O)O)c2ccc(Cl)cc2)cc1,,inactive: 8.07% [at 10 µM]
COc1cc2oc(=O)c3c4c(cc5ccc(c1CCN(C)C)c2c53)OCO4,inactive,
COc1ccc(OC)c(C2/C(=C(/O)c3ccccc3)C(=O)C(=O)N2Cc2ccco2)c1 (stereo not given),"inconclusive: 3.98 µM [activator, single point]",
CCC(CC)C(=O)c1c[nH]c(C(=O)OC)c1,"inconclusive: 3.55 µM [activator, single point]",
O=C(Nc1cccnc1)c1ccccc1NS(=O)(=O)c1ccc(F)cc1,inactive,
CCc1ccc(S(=O)(=O)Nc2cc(SCC(=O)O)c(O)c3ccccc23)cc1,"inconclusive: 0.398 µM [activator, partial curve]",
CCOC(=O)c1c(C)n(C)c2ccc(O)cc12,"inconclusive: 15.8 µM [activator, partial curve, poor fit]",
O=C(/C=C/Nc1ccccc1O)c1ccco1,"inconclusive: 5.62 µM [activator, single point]",
Cc1cc(-c2nnc(-c3ccccc3)c(-c3ccccc3)n2)c(C)o1,inactive,
N/C(=N\OC(=O)c1ccc(Br)o1)c1cccnc1,"inconclusive: 0.891 µM [activator, single point]",
Fc1cccc(Cl)c1CSc1nnc(CN2CCOCC2)n1-c1ccccc1,inactive,
OCCOCCOCCO,"inconclusive: 6.31 µM [activator, partial curve]",
CCn1c(SCC(N)=O)nnc1-c1ccc(S(=O)(=O)N2CCN(C)CC2)cc1,,inactive: -4.92% [at 10 µM]
Cc1ccc(F)cc1S(=O)(=O)NCc1ccc(N2CCN(C)CC2)cc1,,inactive: 6.56% [at 10 µM]
O=C(O)/C=C\C(=O)Nc1ccc(N2CCN(c3cccc(Cl)c3)CC2)cc1,,inactive: 2.9% [at 10 µM]
O=C(COc1ccc(S(=O)(=O)N2CCCC2)cc1Cl)NCc1ccc2c(c1)OCO2,inactive,
Cc1ccc(S(=O)(=O)N2CCN(C(=O)CCC(=O)NCCc3ccc(S(N)(=O)=O)cc3)CC2)c(C)c1,"inconclusive: 35.5 µM [activator, single point]",
N#CC1=C2SCN(Cc3ccccc3)CN2C(=O)CC1c1ccc2c(c1)OCO2 (stereo not given),,inactive: -24% [at 0.074 µM]
O=C(O)c1ccccc1N/C=C\[N+](=O)[O-],"inconclusive: 0.708 µM [activator, single point]",

# Grouped by structure, the entries above containing an aryl thioether with sulfur outside any ring
Compound,Potency,cytoprotection (ATP increase)
Cc1cc(=O)[nH]c(SCC(=O)Nc2cccc3ccccc23)c1C#N,inactive,
CCc1ccc(S(=O)(=O)Nc2cc(SCC(=O)O)c(O)c3ccccc23)cc1,"inconclusive: 0.398 µM [activator, partial curve]",
Fc1cccc(Cl)c1CSc1nnc(CN2CCOCC2)n1-c1ccccc1,inactive,
CCn1c(SCC(N)=O)nnc1-c1ccc(S(=O)(=O)N2CCN(C)CC2)cc1,,inactive: -4.92% [at 10 µM]

# Continuation:

Compound,Potency,cytoprotection (ATP increase)
CC1=NC(C)(C)Cc2c(C)cccc21,"inconclusive: 0.501 µM [activator, partial curve]",
CSC(=S)NCc1cccnc1,"inconclusive: 35.5 µM [activator, single point]",
C/C(=N\NC(N)=S)C12CC3CC(CC(C3)C1)C2,active: 3.16 µM,
Cc1cc(N/N=C/c2ccc(O)cc2O)nc(N2CCOCC2)n1,,inactive: 6.62% [at 10 µM]
CN(C)CC(CCC(CN(C)C)C(=O)c1ccccc1)C(=O)c1ccccc1 (stereo not given),"inconclusive: 4.47 µM [activator, single point]",
COC(=O)C1(C(=O)OC)CC2=CCC3C(=O)N(c4ccccc4)C(=O)C3C2Cc2ccccc2[C@@H]1C[N+](=O)[O-] (stereo not given in full),"inconclusive: 0.282 µM [activator, full curve]",
Cc1cnc(C(=O)Nc2cccc(-c3nnc4n3CCCCC4)c2)cn1,,inactive: -11.8% [at 10 µM]
COc1ccc(-n2c(C)cc(C(=O)CN3C(=O)NC4(CCCc5sccc54)C3=O)c2C)cc1 (stereo not given),"inconclusive: 0.355 µM [activator, partial curve]",
CCN1C(=O)N[C@@H](c2ccc(Br)cc2)C(C(=O)OC)=C1C,"inconclusive: 0.501 µM [activator, full curve, poor fit]",
Cc1ccc(C)n1Cc1ccccc1Cl,"inconclusive: 0.0056 µM [activator, full curve, poor fit]",
C/C(=N\NC(=O)c1c(C)nc2ccccn12)c1ccco1,"inconclusive: 0.01 µM [activator, partial curve, poor fit]",
CC1(C)C(C(=O)O)N2C(=O)CC2S1(=O)=O (stereo not given),"inconclusive: 0.0112 µM [activator, full curve, poor fit]",
O=[N+]([O-])c1ccc(C2=Nn3c(Cn4nnc5ccccc54)nnc3SC2)cc1,,inactive: -9.41% [at 10 µM]
O=C(Nc1ccccc1)c1nnsc1S(=O)c1ccc(Cl)cc1 (stereo not given),inactive,
CC(=O)N(O)CCCCCNC(=O)CCC(=O)N(O)CCCCCNC(=O)CCC(=O)N(O)CCCCCN,"inconclusive: 0.0501 µM [activator, full curve, poor fit]",
O=C(c1cccnc1)N1CCN(Cc2cccc(Br)c2)CC1,"inconclusive: 5.62 µM [activator, single point]",
O=C(/C=C/c1ccc(S(=O)(=O)N2CCOCC2)cc1)NC(=S)NCCCn1ccnc1,"inconclusive: 12.6 µM [activator, partial curve]",
O=S(=O)(c1ccc2c(c1)OCCO2)N1CCN(c2cccc(Cl)c2)CC1,,inactive: 15% [at 10 µM]
O=S(=O)(c1cccc2cnccc12)N1CCNCC1,"inconclusive: 31.6 µM [activator, partial curve, poor fit]",
O=C(Cc1ccc(-n2c(=O)[nH]c3ccsc3c2=O)cc1)N1CCN(c2ccc(Cl)cc2)CC1,"inconclusive: 1.12 µM [activator, partial curve]",
COc1ccc(CSC2=CS(=O)(=O)c3ccccc3N2)cc1,"inconclusive: 1 µM [activator, single point]",
COC(=O)[C@@]1(Cc2ccc(F)cc2)[C@H]2c3cc(C(=O)N(C)C)n(Cc4ccsc4Br)c3C[C@H]2CN1C(=O)c1ccccc1,"inconclusive: 7.94 µM [activator, partial curve, poor fit]",
